Source: PubChem BioAssay AID1259254 (NCATS, 2017)
This is an unselected part of about 59,000 reagents tested. About 1,550 of all reagents (2.6%) count as active. 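G2 share is only a proxy for re-replication; each gene was hit by three separate siRNAs, and active genes were retested.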 The raw values are shown without normalisation. Unmarked entries are inactive. The numbers tell different reagents against one gene apart. Not stated in the record: the amount of reagent.

Screen: 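Genome-wide screen for genes that prevent DNA re-replication in cancer cells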 (primary screen)
Cell system: human HCT116 colorectal cancer cells
Knock-down reagent: single siRNA against human genes
Timing: 3 days
Measurement: 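Imaged Hoechst DNA stain sorts each cell into a cycle phase by DNA amount; per plate, G2 fraction set to 0% for non-targeting and 100% for GMNN siRNA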
Scale: G2 robust z-score and G2 cells, % of GMNN control: higher = more G2 cells, more excess DNA replication; raw share of cells in G2: higher = larger share of cells with G2 DNA content
Call rule: 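Active siRNAs have a G2 robust z of 5 or more median absolute deviations over the median, which in these data means about 38% or higher of GMNN control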

Gene | reagent | G2 robust z-score | G2 cells, % of GMNN control | raw share of cells in G2 (%)
TCF15 | 1 | -0.361 | 0.428 | 4.29
TCF15 | 2 | -0.496 | -0.525 | 4.8
TCF15 | 3 | -0.461 | -0.279 | 4.57
GDF5 | 1 | 0.848 | 8.93 | 9.37
GDF5 | 2 | -0.672 | -1.76 | 3.9
GDF5 | 3 | -0.392 | 0.207 | 4.34
PYGL | 1 | 1.7 | 14.9 | 10.1
PYGL | 2 | 2.69 | 21.9 | 13
PYGL | 3 | -1.04 | -4.32 | 2.71
SPICE1 | 1 | 0.0107 | 3.04 | 4.85
SPICE1 | 2 | -0.427 | -0.0362 | 2.9
SPICE1 | 3 | -0.575 | -1.08 | 2.69
DYNLRB2 | 1 | 0.153 | 4.04 | 5.66
DYNLRB2 | 2 | 0.184 | 4.26 | 7.2
DYNLRB2 | 3 | -0.593 | -1.2 | 4.34
GMNN | 1 | 12.8 (active) | 93.3 | 39.5
GMNN | 2 | 19.4 (active) | 139 | 57.3
GMNN | 3 | 8.44 (active) | 62.3 | 22.9
NCF1 | 1 | 0.488 | 6.4 | 6.11
NCF1 | 2 | -0.419 | 0.0208 | 3.18
NCF1 | 3 | 2.72 | 22.1 | 9.34
NARF | 1 | 1.28 | 12 | 11.6
NARF | 2 | -0.73 | -2.17 | 3.47
NARF | 3 | -0.769 | -2.44 | 3.19
EPM2AIP1 | 1 | 2.18 | 18.3 | 13.6
EPM2AIP1 | 2 | 0.421 | 5.93 | 6.42
EPM2AIP1 | 3 | 8.52 (active) | 62.9 | 26.3
TRMT2A | 1 | 1.6 | 14.2 | 8.9
TRMT2A | 2 | 0.469 | 6.27 | 6.04
TRMT2A | 3 | -0.851 | -3.02 | 4.79
INO80D | 1 | -0.753 | -2.33 | 2.77
INO80D | 2 | -0.551 | -0.907 | 3.89
INO80D | 3 | 1.76 | 15.3 | 8.26
CD8B | 1 | 0.456 | 6.18 | 7.17
CD8B | 2 | 0.13 | 3.88 | 5.43
CD8B | 3 | 0.602 | 7.2 | 7.62
MATR3 | 1 | -0.759 | -2.38 | 3.79
MATR3 | 2 | -0.808 | -2.72 | 4.18
MATR3 | 3 | -0.807 | -2.71 | 2.28
CWC27 | 1 | -1.06 | -4.52 | 4.7
CWC27 | 2 | -0.968 | -3.84 | 4.03
CWC27 | 3 | 2.69 | 21.9 | 10.9
MAPK8 | 1 | 1.64 | 14.5 | 10.4
MAPK8 | 2 | 4.61 | 35.4 | 17.3
MAPK8 | 3 | -0.447 | -0.175 | 3.96
MEPE | 1 | 0.604 | 7.22 | 7.19
MEPE | 2 | 0.742 | 8.19 | 8.37
MEPE | 3 | -0.318 | 0.732 | 3.26
ZNF205 | 1 | -0.411 | 0.0742 | 3.55
ZNF205 | 2 | 0.743 | 8.19 | 9.64
ZNF205 | 3 | 0.261 | 4.81 | 5.35
SNAI2 | 1 | 4.37 | 33.7 | 17
SNAI2 | 2 | 0.228 | 4.57 | 6.11
SNAI2 | 3 | 1.1 | 10.7 | 7.5
DNAJC5B | 1 | -0.374 | 0.337 | 3.21
DNAJC5B | 2 | 0.734 | 8.13 | 5.99
DNAJC5B | 3 | -0.465 | -0.307 | 3.42
GPN3 | 1 | -0.466 | -0.308 | 5.81
GPN3 | 2 | -0.951 | -3.72 | 2.87
GPN3 | 3 | -0.903 | -3.38 | 2.5
SLC9C1 | 1 | -0.239 | 1.29 | 5.22
SLC9C1 | 2 | -0.311 | 0.783 | 5.57
SLC9C1 | 3 | -1.21 | -5.58 | 2.2
PPIB | 1 | 0.708 | 7.95 | 7.71
PPIB | 2 | 0.807 | 8.65 | 7.98
PPIB | 3 | 0.41 | 5.85 | 6.09
RHOB | 1 | 0.556 | 6.88 | 7.06
RHOB | 2 | 3.49 | 27.5 | 14.9
RHOB | 3 | 0.588 | 7.1 | 6.64

Ordered by “raw share of cells in G2 (%)” (lowest first): some entries from above.
Gene | reagent | G2 robust z-score | G2 cells, % of GMNN control | raw share of cells in G2 (%)
SPICE1 | 3 | -0.575 | -1.08 | 2.69
PYGL | 3 | -1.04 | -4.32 | 2.71
SPICE1 | 2 | -0.427 | -0.0362 | 2.9
GDF5 | 2 | -0.672 | -1.76 | 3.9
GDF5 | 3 | -0.392 | 0.207 | 4.34
TCF15 | 3 | -0.461 | -0.279 | 4.57
SPICE1 | 1 | 0.0107 | 3.04 | 4.85
DYNLRB2 | 1 | 0.153 | 4.04 | 5.66
GDF5 | 1 | 0.848 | 8.93 | 9.37
PYGL | 1 | 1.7 | 14.9 | 10.1
PYGL | 2 | 2.69 | 21.9 | 13
